# Laboratory results published in PMC10731243.
# By UniProt entry, the sequences of proteins in these tests, tags left out.
# UniProt A0MES8: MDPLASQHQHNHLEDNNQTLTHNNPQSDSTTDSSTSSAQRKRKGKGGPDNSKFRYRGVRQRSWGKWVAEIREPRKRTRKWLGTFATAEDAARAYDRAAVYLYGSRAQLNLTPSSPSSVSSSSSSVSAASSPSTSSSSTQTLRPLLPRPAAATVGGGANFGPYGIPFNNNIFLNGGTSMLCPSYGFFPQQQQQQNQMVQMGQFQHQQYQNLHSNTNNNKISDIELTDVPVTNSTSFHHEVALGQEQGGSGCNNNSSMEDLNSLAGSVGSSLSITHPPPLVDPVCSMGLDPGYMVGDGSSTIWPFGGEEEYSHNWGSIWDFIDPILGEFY
# No constants are given. Whether binding was seen depends on the method and setting. Binding seen in cells or lysates may run through a third protein. Where a sequence is shown, tags or fusion partners need not be part of it.
# B1: EX1-GFP (executer 1 fused to GFP, from 35S:EX1-GFP transgenic plants) (protein, UniProt Q93YW0 47-684)
# chain: CSSSSGSNSSSSSSSDDNPRWDSAIQDVLKSAIKRFDSVLSWYATLDNDDGEQGSENVEKIDDDWDWDRWKKHFDQVDDQDRLLSVLKSQLNRAIKREDYEDAARLKVAIAATATNDAVGKVMSTFYRALLEERYKDAVYLRDKAGAGLVGWWSGISEDVKDPFGLIVQITAEHGRYVARSYNPRQLSTSAAGAPLFEIFLTLDGKGNYKKQAVYLKWKEIFPDVPTMPSRTLTPGRFLTSPGRKEDTGNLAVESSEDEESDNSDDDSDLLEESSGFQSFLRDMIPGVKVKVMKVTAPGRVDKDFISKVIEQIADEEDEENDLDIEDIDVEDDTKAEIDEKNADIELESVTDEIIDNNGGREIAVKFVIGDIVDRLSGNQPLKESLRSPANLESVENSSFYLRLEKDLNVKESKGVEGTTLVDGKGSRQSRRRIENIMGDLAKSIEKEKKISVKMLKDVGELLSLTLSQAQNRQQLSGLTKFRRIDVTPSLDPLDGLYIGAHGLYTSEVIHLKRKFGQWKGGKESKKPTDIEFYEYVEAVKLTGDPYVPAGKVAFRAKIGRRYELPHKGLIPEEFGVIARYKGQGRLADPGFRNPRWVDGELVILDGKYVKGGPVVGFVYWAPEYHFVMFFNRLRLQA
# Molecular target: abscisic acid insensitive 4 (ABI4) (Arabidopsis (endogenous in 35S:EX1-GFP seedlings)) (UniProt A0MES8)
# Experiment: co-IP; nuclear proteins of 35S:EX1-GFP seedlings (5 days dark, then 100 uM Rose Bengal in white light for 0 or 30 min) in Co-IP buffer (100 mM NaCl, 10 mM Tris-HCl, 10 mM MgCl2, 1 mM EDTA, 5% glycerol, 1% Triton X-100, 0.4% NP-40, pH 7.5); precipitated with anti-GFP-agarose or anti-ABI4-agarose beads, 1 h at 4 °C; blotted with anti-GFP or anti-ABI4
binder,measurement,value
B1,binding,no binding
